# Molecular target: T1, rat trace amine receptor (Rattus norvegicus, UniProt Q923Y9)
# Amino acid sequences for entries named in this document (tags omitted).
# UniProt Q923Y9, whole entry: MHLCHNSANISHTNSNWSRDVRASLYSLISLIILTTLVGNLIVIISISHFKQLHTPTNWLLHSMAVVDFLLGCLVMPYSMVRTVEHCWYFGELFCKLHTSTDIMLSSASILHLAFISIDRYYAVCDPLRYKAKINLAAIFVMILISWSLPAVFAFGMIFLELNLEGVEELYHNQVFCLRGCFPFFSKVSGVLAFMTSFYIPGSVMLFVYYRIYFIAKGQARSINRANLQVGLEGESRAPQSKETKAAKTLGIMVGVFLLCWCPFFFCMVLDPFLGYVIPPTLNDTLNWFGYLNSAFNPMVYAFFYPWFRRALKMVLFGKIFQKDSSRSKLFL
# T1 construct: HEK293 cells stably transfected with the pcDNA3.1/V5/His-TOPO expression vector containing the full-length rat cDNA clone described above; expressed in transfected cells
# Format: cell-based
structure (smiles),measurement,value
CCN(CC)C(=O)N[C@H]1C=C2c3cccc4[nH]cc(c34)C[C@H]2N(C)C1 [lisuride],"activation of the trace amine receptor / cAMP production, in words",potently activate
